Measured values published in PubChem BioAssay AID2685 (National Center for Advancing Translational Sciences (NCATS), 2010).
The other results are listed elsewhere or left out. The main result of the screen is listed elsewhere. These columns were measured beside it and carry no call. Most of these compounds were active or inconclusive in the main read-out, so they are no random draw. Words in brackets tell the shape of the fitted curve; partial curves, single points and poor fits give uncertain potencies.

Assay: qHTS Assay for Lipid Storage Modulators in Drosophila S3 Cells;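 as to cell number change: cells counted by Cell Tracker Red CMTPX staining in the red channel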
Settings: BODIPY lipid droplet fluorescence, 18-24 h; for cell number change: measured here: cell count max response, cells fed with added oleic acid
How it was run: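 Drosophila S3 cells loaded with oleic acid (400 uM, as added) and compounds at several concentrations; lipid droplets imaged by 488-nm laser-scanning cytometry, 500–530 nm intensity and object ratio to cell channel. Percent activity normalized to 20 uM Triacsin C.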

[1] = measured here: lipid fluorescence (Fed channel) AC50, cells fed with added oleic acid
[2] = measured here: cell number channel AC50, cells fed with added oleic acid

Structure (SMILES) | cell number change | AC50 [1] | AC50 [2]
O=C(NC1CCN(S(=O)(=O)c2cccc([N+](=O)[O-])c2)CC1)C1CCCCC1 | -9.4% | 6.51 µM [rising, single point] | 
CC1=CC(C)C2C(=O)N(CCCN(C)C)C(=O)C2C1 (stereo not given) | -54.7% |  | 20.6 µM [falling, single point]
CCCc1ncc(C(=O)c2ccc(OC)cc2)n1C | 15.6% |  | 
COc1cc(-c2c(-c3ccsc3)sc3ccccc23)cc(OC)c1OC | 9.77% | 0.146 µM [rising, full curve] | 
COc1ccc(NC(C)=O)cc1CNC(=O)COc1c(C)c(C)cc(C)c1C | 32.9% | 14.6 µM [rising, partial curve] | 9.2 µM [rising, partial curve]
Cc1c(C)c2ccc(OCC(=O)NC3CCN(Cc4ccccc4)CC3)c(C)c2oc1=O | -7.08% | 29.1 µM [rising, single point] | 
Cc1cccc(NC(=O)c2cc(S(=O)(=O)NCc3ccco3)ccc2F)c1C | -2.51% | 0.146 µM [rising, full curve, poor fit] | 
CSc1ccccc1NC(=O)c1onc(C)c1Cl | 6.94% | 1.16 µM [falling, full curve] | 0.146 µM [falling, full curve]
N#CNC(=Nc1ccccc1)SCc1ccc(C(=O)O)cc1 | -14.2% | 0.461 µM [falling, full curve] | 
COc1ccc(-c2nnc(SCC(=O)Nc3cc(C)on3)o2)cc1 | -3.66% | 3.66 µM [falling, single point] | 0.00461 µM [falling, full curve, poor fit]
Nc1c(C(=O)NCc2ccc(Cl)cc2)sc2nc3c(c(C(F)(F)F)c12)CCC3 | -0.707% |  | 
Cc1ccc(NC(=O)CSCC(=O)N=c2sccn2C)cc1 | 24.7% | 1.3 µM [rising, full curve] | 
O=C(NCCCn1ccnc1)C(=O)NCC1OCCN1S(=O)(=O)c1cc(F)ccc1F (stereo not given) | 22.6% | 13 µM [rising, partial curve] | 
Cc1ccc2c(C)nc(Nc3nc(CSc4nc5ccccc5[nH]4)cc(=O)[nH]3)nc2c1 | -30.1% | 2.59 µM [falling, full curve] | 5.17 µM [falling, full curve, poor fit]
Cc1ccc2nc(-c3ccc(NC(=S)NC(=O)CC(C)C)cc3)sc2c1 | -9.59% | 23.1 µM [falling, partial curve] | 2.31 µM [falling, partial curve]
Cc1cc2cc(CNC(=O)c3ccc(S(=O)(=O)N4CCOCC4)cc3)ccc2n1C | 18.9% | 0.731 µM [falling, full curve] | 
COc1cc(/C=N/NC(=S)Nc2cccnc2)cc(OC)c1O | -32.3% | 0.13 µM [falling, full curve, poor fit] | 2.31 µM [falling, full curve, poor fit]
CCN(CC)CCCNC(=O)CCn1nc(-c2ccccc2)ccc1=O | 9.93% |  | 
CCNC(=O)CSc1nnc(C2CC2)n1-c1ccccc1 | -5.2% |  | 
COc1ccc(NC(=O)c2ccc3c(SCC(=O)O)c4c(nc3c2)CCCC4)c(OC)c1 | 13.8% | 4.61 µM [falling, single point] | 4.11 µM [falling, single point]
COC(=O)Oc1nsnc1N1CCOCC1 | -6.51% | 16.4 µM [falling, partial curve] | 1.3 µM [falling, partial curve]
COc1ccc2c(CC(=O)OCC(=O)Nc3ccc4c(c3)OCO4)coc2c1 | 5.29% |  | 

Structure (SMILES) | cell number change | AC50 [1] | AC50 [2]
CCc1ccc(NC(=O)CSc2ccc(-c3ccccn3)nn2)cc1 | 9.84% | 2.06 µM [rising, single point] | 
Cc1csc(NC(=O)CCc2c(C)nc3cc(-c4ccc(Cl)cc4)nn3c2C)n1 | -30.9% | 18.4 µM [falling, single point] | 23.1 µM [falling, single point]
CCC(CC)C(=O)c1c[nH]c(C(=O)NCCOC)c1 | -41.4% |  | 2.59 µM [falling, full curve]
COc1ccccc1OCC(=O)Nc1ccc(S(=O)(=O)Nc2cc(C)nc(C)n2)cc1 | 16% |  | 
Cc1cccc(CC(=O)NCCN2CCOCC2)c1 | -23.2% | 4.11 µM [rising, full curve] | 
CCCCn1c(N)c(N(CC)C(=O)CSCC(=O)Nc2ccc(OC)cc2)c(=O)[nH]c1=O | -21.3% |  | 
COc1ccc(NS(=O)(=O)c2cn(C)cn2)cc1OC | 8.87% | 7.31 µM [rising, partial curve] | 
CCOC(=O)c1ccccc1NC(=O)CSc1nc2ccccc2c(=O)[nH]1 |  |  | 6.51 µM [falling, single point]
COc1ccc(CC(NC(C)=O)C(=O)NC2CCN(c3ncccc3[N+](=O)[O-])CC2)cc1 (stereo not given) | 46.7% | 0.461 µM [rising, partial curve, poor fit] | 29.1 µM [rising, single point]
CCOC(=O)c1c(/N=C/c2cc([N+](=O)[O-])ccc2O)sc(C)c1C | 1.71% | 0.0651 µM [falling, partial curve, poor fit] | 0.092 µM [falling, full curve, poor fit]
COc1ccc(/C=C/C(=O)Oc2cccc(/C=N/NC(=O)Cc3ccc(Br)cc3)c2)cc1 | 5.41% | 3.26 µM [rising, single point] | 
CCN(CC)C(=O)CSc1nc2cc3c(cc2c(=O)n1Cc1ccc2c(c1)OCO2)OCO3 |  |  | 0.58 µM [rising, full curve, poor fit]
CNC(=O)COC(=O)c1ccccc1Nc1ccccc1 |  | 20.6 µM [falling, partial curve] | 
CN1CCN(C(=O)/C(=C/c2cn(S(=O)(=O)N(C)C)c3ccccc23)NC(=O)c2ccccc2Cl)CC1 |  | 0.58 µM [rising, single point] | 
CC(C)CCNC(=O)CCS(=O)(=O)c1cccc2nonc12 | 2.18% | 18.4 µM [rising, single point] | 
CCOc1cc(S(=O)(=O)n2nc(C)cc2C)ccc1F |  | 29.1 µM [rising, single point] | 
CCOC(=O)c1ccc(Nc2ccc(-c3ccc(OC)c(OC)c3)nn2)cc1 | -40.6% | 32.6 µM [falling, single point] | 14.6 µM [falling, partial curve]
CC(C)(C)c1nc(NCC2CCCO2)c2nnn(Cc3ccccc3)c2n1 (stereo not given) | 5.23% | 5.17 µM [rising, single point] | 
O=[N+]([O-])c1ccc(N2CCN(c3ccccc3O)CC2)cc1 | 21.8% |  | 
O=C(COC(=O)COc1ccccc1F)Nc1ccc2c(c1)OCO2 | 0.211% | 0.58 µM [falling, single point] | 
Cc1cc(NCCOCCO)n2ncc(-c3ccc(Cl)cc3)c2n1 | -10.1% |  | 
CC1CN(C(=O)CNC(=O)Cc2cccc3ccccc23)CC(C)O1 (stereo not given) |  | 29.1 µM [falling, single point] | 

Structure (SMILES) | cell number change | AC50 [1] | AC50 [2]
O=S(=O)(c1ccccc1)N1CCN(Cc2cc3c(cc2Br)OCCO3)CC1 | 30.5% | 0.146 µM [rising, full curve, poor fit] | 
CN(C)C(=O)C1CCC(=O)N1Cc1cccs1 (stereo not given) | 9.9% |  | 
Cc1ccc2nc(-c3ccccc3)cc(C(=O)N3CCN(S(=O)(=O)c4c(C)noc4C)CC3)c2c1 | -19.2% |  | 
O=C(c1ccc(S(=O)(=O)N2CCOCC2)cc1)N1CCc2ccccc21 | -14.3% |  | 
COc1cccc(NC(=O)CN(C)CC(=O)Nc2ccccc2-c2ccccc2)c1 | -19.9% | 6.51 µM [rising, partial curve] | 6.51 µM [rising, single point]
COc1ccc(COC(=O)CCS(=O)(=O)c2ccc(C)cc2)cc1 | -23.9% |  | 1.84 µM [falling, full curve, poor fit]
COCCOC(=O)C1=C(C)N=C2SCCC(=O)N2C1/C=C/c1ccccc1 (stereo not given) | -14.1% | 2.31 µM [rising, single point] | 
CC(C)OC(=O)/C(=C/c1ccc(Br)cc1)NC(=O)c1ccco1 | 26.4% |  | 
CN(C)S(=O)(=O)c1ccc2c(c1)nc(CCC(=O)O)n2C | 16.4% |  | 
CCOc1ncccc1C(=O)OCC(=O)c1cc(C)n(Cc2ccco2)c1C | -15.5% | 29.1 µM [rising, single point] | 
Cn1nccc1C(=O)N1CCN(c2ncccn2)CC1 | -22.3% |  | 
CCOC(=O)c1sc(NNC(=O)c2ccc(C)cc2)nc1C |  | 4.61 µM [rising, partial curve, poor fit] | 
CC1=C(C(=O)OCC2CCCCC2)C(c2cccc(O)c2)NC(=O)N1 (stereo not given) | 13.9% |  | 
Cc1c(C(=O)N2c3ccccc3CC2C)oc2ccccc12 (stereo not given) | -7.23% |  | 
Cc1ccccc1OCC(=O)OCC(=O)NCC1CCCO1 (stereo not given) | 19.7% | 0.00461 µM [falling, full curve, poor fit] | 
COc1ccc(-n2c(Cc3cccn3C)nnc2SCC(=O)NCC2CCCO2)cc1 (stereo not given) | 41.6% |  | 23.1 µM [rising, single point]
Cc1ccc(CCNC(=O)c2c[nH]c3ccc(S(=O)(=O)Nc4ccc(C)cc4C)cc3c2=O)cc1 | 13.6% |  | 
COc1ccc(C)cc1NC(=O)CN(C)S(=O)(=O)c1ccc2c(c1)n(C)c(=O)c(=O)n2C | -15.8% | 0.651 µM [falling, full curve] | 
COc1ccc(/C=N/NC(=O)c2ccncc2)cc1Cn1nc([N+](=O)[O-])c(Br)c1C | 2.73% |  | 
CCOC(=O)C1CCCN(C(=O)c2ccc(OC)c([N+](=O)[O-])c2)C1 (stereo not given) | 33.3% |  | 29.1 µM [rising, single point]

Full records from above:
O=C(COC(=O)COc1ccccc1F)Nc1ccc2c(c1)OCO2 in the list: cell number change: 0.211%; AC50 [1]: 0.58 µM [falling, single point]
CNC(=O)COC(=O)c1ccccc1Nc1ccccc1 in the list: AC50 [1]: 20.6 µM [falling, partial curve]
COCCOC(=O)C1=C(C)N=C2SCCC(=O)N2C1/C=C/c1ccccc1 (stereo not given) in the list: cell number change: -14.1%; AC50 [1]: 2.31 µM [rising, single point]
CN(C)C(=O)C1CCC(=O)N1Cc1cccs1 (stereo not given) in the list: cell number change: 9.9%
